Measurements reported in patent EP0296592A2, “Aminopropanol derivatives of 3-(2-hydroxyphenyl)-1-propanone, process for their preparation and medicines containing these compounds” (Helopharm W. Petrik GmbH & Co.KG., priority 1987, dated 1988).

Key:
[1] = Acute toxicity LD50, mouse i.v.; details: in vivo, iv, Maus (i.v.), read-out: LD₅₀
Excerpt: (§1) Die hohe antiarrhythmische Wirksamkeit ist nicht begleitet von einer signifikanten Toxizitätssteigerung im Vergleich zu Propafenon. Dies ergibt sich aus einem Vergleich der LD₅₀-Werte bei Ratten und Mäusen, die in Tabelle (II) zusammengefaßt sind. Tabelle I

[2] = Acute toxicity LD50, rat i.v.; details: in vivo, iv, Ratte (i.v.), read-out: LD₅₀
Excerpt: as §1

SMILES: CCCNCC(O)COc1ccccc1C(=O)CCc1ccccc1 (centres unmarked) [A, Propafenon, reference compound]
- LD50 [1]: 18 mg/kg
- LD50 [2]: 16 mg/kg
